From paper doi:10.1101/2025.11.18.689088
These are yes or no findings as the source states them, for the method shown. Binding can be weak; no strength is given.

Molecular target: T1, BRUTUS (BTS) (Arabidopsis thaliana) (UniProt Q8LPQ5)
T1 sequence: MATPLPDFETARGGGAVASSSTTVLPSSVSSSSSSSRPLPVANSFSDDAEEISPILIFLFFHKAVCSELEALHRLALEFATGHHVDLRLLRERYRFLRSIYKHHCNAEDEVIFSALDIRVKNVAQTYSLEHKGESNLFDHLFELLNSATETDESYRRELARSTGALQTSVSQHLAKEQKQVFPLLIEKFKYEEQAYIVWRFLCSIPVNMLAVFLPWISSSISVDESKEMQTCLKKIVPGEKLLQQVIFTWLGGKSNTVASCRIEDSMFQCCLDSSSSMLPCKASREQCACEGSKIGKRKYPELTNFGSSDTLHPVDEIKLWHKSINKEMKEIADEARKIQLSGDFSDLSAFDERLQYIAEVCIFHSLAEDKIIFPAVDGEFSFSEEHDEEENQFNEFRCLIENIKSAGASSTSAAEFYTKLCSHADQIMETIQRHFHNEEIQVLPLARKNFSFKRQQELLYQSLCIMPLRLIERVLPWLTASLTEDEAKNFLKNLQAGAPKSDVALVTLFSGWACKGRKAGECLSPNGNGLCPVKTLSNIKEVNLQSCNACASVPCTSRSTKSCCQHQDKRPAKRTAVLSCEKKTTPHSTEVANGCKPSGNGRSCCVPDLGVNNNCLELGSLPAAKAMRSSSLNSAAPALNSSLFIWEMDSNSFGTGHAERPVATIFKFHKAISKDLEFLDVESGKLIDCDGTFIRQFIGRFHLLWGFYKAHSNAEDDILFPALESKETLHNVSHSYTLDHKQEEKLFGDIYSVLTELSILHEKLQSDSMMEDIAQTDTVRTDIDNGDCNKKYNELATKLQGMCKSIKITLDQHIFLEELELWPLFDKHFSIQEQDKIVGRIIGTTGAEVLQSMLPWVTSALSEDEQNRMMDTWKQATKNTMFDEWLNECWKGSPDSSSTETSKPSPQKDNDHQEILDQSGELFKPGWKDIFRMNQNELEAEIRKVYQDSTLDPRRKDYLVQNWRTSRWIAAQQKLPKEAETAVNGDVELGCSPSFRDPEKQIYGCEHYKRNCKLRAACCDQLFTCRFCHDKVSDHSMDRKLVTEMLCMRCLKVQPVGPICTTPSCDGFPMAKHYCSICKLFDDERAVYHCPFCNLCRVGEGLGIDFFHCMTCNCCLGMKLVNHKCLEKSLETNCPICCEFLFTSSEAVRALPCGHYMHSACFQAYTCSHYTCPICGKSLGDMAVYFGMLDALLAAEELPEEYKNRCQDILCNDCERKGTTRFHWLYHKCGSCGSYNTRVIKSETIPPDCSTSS
Experiment: two-hybrid

binding: binds
Substance: C-terminal part of bHLH104 (bHLH104-C) (Arabidopsis thaliana) (domain or fragment)
